No constants are given. Whether binding was seen depends on the method and setting. Binding seen in cells or lysates may run through a third protein. Some entries that bind do so weakly or less than the wild type. Tags and fused reporters may be left off the sequences shown.
T1: FLAG-4E-T (4E-Transporter, full length) (human) (UniProt Q9NRA8)
T1 sequence: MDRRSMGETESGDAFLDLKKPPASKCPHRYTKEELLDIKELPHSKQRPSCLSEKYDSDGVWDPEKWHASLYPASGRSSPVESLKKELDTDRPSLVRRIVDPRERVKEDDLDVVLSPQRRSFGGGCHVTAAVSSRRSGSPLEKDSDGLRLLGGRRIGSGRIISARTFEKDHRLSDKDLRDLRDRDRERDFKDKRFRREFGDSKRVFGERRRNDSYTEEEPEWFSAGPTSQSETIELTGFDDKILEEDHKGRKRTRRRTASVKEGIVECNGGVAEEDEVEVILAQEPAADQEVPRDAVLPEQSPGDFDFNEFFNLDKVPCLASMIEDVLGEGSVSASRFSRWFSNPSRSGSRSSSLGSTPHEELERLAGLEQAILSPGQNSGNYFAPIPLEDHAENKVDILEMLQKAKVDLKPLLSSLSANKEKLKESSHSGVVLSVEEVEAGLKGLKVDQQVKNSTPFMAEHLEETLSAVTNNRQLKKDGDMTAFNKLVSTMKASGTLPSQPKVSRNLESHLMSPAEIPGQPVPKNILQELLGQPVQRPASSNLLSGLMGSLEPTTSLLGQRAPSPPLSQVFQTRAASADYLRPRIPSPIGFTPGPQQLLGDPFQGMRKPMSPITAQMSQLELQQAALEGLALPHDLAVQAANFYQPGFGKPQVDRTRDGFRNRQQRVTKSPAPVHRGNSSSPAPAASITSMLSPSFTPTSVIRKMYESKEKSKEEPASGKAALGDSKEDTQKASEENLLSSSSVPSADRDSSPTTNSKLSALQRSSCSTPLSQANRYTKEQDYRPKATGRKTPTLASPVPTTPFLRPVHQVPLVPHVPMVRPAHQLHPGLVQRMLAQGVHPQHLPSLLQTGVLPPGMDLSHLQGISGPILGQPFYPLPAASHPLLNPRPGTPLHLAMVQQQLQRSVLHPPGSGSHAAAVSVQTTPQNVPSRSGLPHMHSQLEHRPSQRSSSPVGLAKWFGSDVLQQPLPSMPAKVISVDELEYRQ

The chains behind the UniProt entries cited, without tags or fusion partners.
UniProt O60573: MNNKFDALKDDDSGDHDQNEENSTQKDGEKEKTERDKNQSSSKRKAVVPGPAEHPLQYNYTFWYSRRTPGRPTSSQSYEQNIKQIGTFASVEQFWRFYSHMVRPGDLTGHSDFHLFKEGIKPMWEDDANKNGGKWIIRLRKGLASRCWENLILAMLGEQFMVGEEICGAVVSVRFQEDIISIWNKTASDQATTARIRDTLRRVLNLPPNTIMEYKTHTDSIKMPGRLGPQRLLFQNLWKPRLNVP
UniProt Q8ND56: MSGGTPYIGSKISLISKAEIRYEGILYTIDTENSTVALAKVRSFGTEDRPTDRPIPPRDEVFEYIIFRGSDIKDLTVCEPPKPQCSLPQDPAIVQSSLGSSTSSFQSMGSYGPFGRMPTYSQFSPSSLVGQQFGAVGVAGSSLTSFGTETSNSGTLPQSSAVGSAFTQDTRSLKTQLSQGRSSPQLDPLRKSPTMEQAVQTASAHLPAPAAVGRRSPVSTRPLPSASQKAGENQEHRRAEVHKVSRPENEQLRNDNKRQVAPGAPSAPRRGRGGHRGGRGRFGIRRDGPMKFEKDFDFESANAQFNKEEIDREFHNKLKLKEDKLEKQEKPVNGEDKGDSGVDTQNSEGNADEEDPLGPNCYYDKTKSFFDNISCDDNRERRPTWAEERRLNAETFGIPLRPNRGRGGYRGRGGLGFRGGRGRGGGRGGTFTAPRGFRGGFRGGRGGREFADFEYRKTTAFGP
UniProt P06730: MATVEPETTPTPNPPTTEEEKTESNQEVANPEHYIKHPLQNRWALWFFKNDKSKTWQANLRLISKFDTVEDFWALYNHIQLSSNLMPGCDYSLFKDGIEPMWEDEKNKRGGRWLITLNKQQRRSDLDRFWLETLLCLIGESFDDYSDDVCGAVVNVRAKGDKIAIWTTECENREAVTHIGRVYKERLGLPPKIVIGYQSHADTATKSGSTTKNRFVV

T2: FLAG-4E-TΔCHD (human) (UniProt Q9NRA8)
T2 sequence: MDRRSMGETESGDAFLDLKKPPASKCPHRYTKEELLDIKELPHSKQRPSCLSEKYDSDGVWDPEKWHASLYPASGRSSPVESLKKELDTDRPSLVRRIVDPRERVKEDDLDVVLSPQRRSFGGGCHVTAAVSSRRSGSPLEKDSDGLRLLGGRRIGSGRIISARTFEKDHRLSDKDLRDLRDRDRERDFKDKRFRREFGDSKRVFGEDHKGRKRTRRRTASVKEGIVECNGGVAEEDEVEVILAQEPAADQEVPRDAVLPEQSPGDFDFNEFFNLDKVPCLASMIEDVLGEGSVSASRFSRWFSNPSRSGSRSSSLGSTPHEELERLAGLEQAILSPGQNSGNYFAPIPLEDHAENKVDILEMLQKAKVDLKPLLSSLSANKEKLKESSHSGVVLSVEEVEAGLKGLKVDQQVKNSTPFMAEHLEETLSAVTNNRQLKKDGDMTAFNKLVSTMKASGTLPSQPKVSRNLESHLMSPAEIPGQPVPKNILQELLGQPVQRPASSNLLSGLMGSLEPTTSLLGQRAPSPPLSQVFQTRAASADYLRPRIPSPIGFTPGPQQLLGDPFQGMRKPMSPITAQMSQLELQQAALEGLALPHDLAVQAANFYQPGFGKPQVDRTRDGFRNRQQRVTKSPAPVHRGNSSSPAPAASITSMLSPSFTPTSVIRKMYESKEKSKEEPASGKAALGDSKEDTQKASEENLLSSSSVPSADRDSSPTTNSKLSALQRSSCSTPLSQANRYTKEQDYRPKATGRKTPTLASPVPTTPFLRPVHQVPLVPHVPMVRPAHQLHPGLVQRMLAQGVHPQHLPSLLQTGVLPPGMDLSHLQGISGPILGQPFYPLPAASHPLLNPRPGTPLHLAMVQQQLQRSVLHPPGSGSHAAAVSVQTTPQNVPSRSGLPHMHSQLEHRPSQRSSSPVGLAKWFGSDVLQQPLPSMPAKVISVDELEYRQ

T3: FLAG-4E-TΔCHD 1-694 (human) (UniProt Q9NRA8)
T3 sequence: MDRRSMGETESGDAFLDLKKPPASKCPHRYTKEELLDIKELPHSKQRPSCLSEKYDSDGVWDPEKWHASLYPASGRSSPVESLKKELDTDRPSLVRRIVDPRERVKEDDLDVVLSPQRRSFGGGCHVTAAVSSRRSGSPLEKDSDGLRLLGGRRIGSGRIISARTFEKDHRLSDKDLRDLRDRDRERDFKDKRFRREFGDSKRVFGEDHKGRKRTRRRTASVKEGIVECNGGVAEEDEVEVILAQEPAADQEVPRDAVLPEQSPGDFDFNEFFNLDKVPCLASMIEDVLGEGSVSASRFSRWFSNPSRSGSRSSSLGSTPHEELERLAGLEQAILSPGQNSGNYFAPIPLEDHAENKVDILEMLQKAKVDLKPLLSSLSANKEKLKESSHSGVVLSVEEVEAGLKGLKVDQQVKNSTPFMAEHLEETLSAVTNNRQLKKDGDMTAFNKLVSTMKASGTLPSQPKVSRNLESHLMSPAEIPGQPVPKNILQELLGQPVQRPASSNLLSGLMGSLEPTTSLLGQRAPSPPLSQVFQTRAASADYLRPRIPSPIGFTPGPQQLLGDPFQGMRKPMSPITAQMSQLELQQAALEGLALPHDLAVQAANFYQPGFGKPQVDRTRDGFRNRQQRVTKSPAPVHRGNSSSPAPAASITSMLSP

B1: PAT1B, endogenous (protein, UniProt Q86TB9 1-770)
chain: MFRYESLEDCPLDEDEDAFQGLGEEDEEIDQFNDDTFGSGAVDDDWQEAHERLAELEEKLPVAVNEQTGNGERDEMDLLGDHEENLAERLSKMVIENELEDPAIMRAVQTRPVLQPQPGSLNSSIWDGSEVLRRIRGPLLAQEMPTVSVLEYALPQRPPQGPEDDRDLSERALPRRSTSPIIGSPPVRAVPIGTPPKQMAVPSFTQQILCPKPVHVRPPMPPRYPAPYGERMSPNQLCSVPNSSLLGHPFPPSVPPVLSPLQRAQLLGGAQLQPGRMSPSQFARVPGFVGSPLAAMNPKLLQGRVGQMLPPAPGFRAFFSAPPSATPPPQQHPPGPGPHLQNLRSQAPMFRPDTTHLHPQHRRLLHQRQQQNRSQHRNLNGAGDRGSHRSSHQDHLRKDPYANLMLQREKDWVSKIQMMQLQSTDPYLDDFYYQNYFEKLEKLSAAEEIQGDGPKKERTKLITPQVAKLEHAYKPVQFEGSLGKLTVSSVNNPRKMIDAVVTSRSEDDETKEKQVRDKRRKTLVIIEKTYSLLLDVEDYERRYLLSLEEERPALMDDRKHKICSMYDNLRGKLPGQERPSDDHFVQIMCIRKGKRMVARILPFLSTEQAADILMTTARNLPFLIKKDAQDEVLPCLLSPFSLLLYHLPSVSITSLLRQLMNLPQSAATPALSNPHLTAVLQNKFGLSLLLILLSRGEDLQSSDPATESTQNNQWTEVMFMATRELLRIPQAALAKPISIPTNLVSLFSRYVDRQKLNLLETKLQLVQGIR
B2: CNOT4, endogenous (protein, UniProt O95628 1-575)
chain: MSRSPDAKEDPVECPLCMEPLEIDDINFFPCTCGYQICRFCWHRIRTDENGLCPACRKPYPEDPAVYKPLSQEELQRIKNEKKQKQNERKQKISENRKHLASVRVVQKNLVFVVGLSQRLADPEVLKRPEYFGKFGKIHKVVINNSTSYAGSQGPSASAYVTYIRSEDALRAIQCVNNVVVDGRTLKASLGTTKYCSYFLKNMQCPKPDCMYLHELGDEAASFTKEEMQAGKHQEYEQKLLQELYKLNPNFLQLSTGSVDKNKNKVTPLQRYDTPIDKPSDSLSIGNGDNSQQISNSDTPSPPPGLSKSNPVIPISSSNHSARSPFEGAVTESQSLFSDNFRHPNPIPSGLPPFPSSPQTSSDWPTAPEPQSLFTSETIPVSSSTDWQAAFGFGSSKQPEDDLGFDPFDVTRKALADLIEKELSVQDQPSLSPTSLQNSSSHTTTAKGPGSGFLHPAAATNANSLNSTFSVLPQRFPQFQQHRAVYNSFSFPGQAARYPWMAFPRNSIMHLNHTANPTSNSNFLDLNLPPQHNTGLGGIPVAGEEEVKVSTMPLSTSSHSLQQGQQPTSLHTTVA

Key:
Assay in all cases: co-IP; anti-FLAG M2 beads on lysates of transfected HEK293T cells, eluted with SDS loading buffer, western blot; lysates with or without RNase A (40 μg/ml); in some panels cells also given siRNA against β-globin, DDX6, UNR or unrip, or co-transfected with HA-DDX6
[1] = molecular target: T1, FLAG-4E-T (4E-Transporter, full length) (human)
FLAG-4E-TΔCHD (human) = molecular target: T2, FLAG-4E-TΔCHD (human)
[2] = molecular target: T3, FLAG-4E-TΔCHD 1-694 (human)

| Molecule | binding [1] | binding (FLAG-4E-TΔCHD (human)) | binding [2] |
| --- | --- | --- | --- |
| eIF4E2, endogenous (from UniProt O60573 1-245) | binds | binds | – |
| LSM14A, endogenous (from UniProt Q8ND56 1-463) | binds | binds | binds |
| eIF4E1, endogenous (from UniProt P06730 1-217) | binds | binds | binds |
| B1 | binds | binds | no binding |
| B2 | binds | binds | – |
